Measured values reported in patent publication US5332759A, “Naphthalene amides and sulphonamides, processes for their preparation and pharmaceutical compositions containing them” (Adir et Compagnie, priority 1992, dated 1994).
The name of at least one read-out is uncertain.

Legend:
Assay type in all cases: binding
α1 = assay: In vitro affinity by displacement of a reference radioligand, α1; details: read-out: affinity for α1 receptors
5-HT1 D receptors = assay: In vitro affinity by displacement of a reference radioligand, 5-HT1 D; details: radioligand 5-OH tryptamine; cortex + striatum + GP
α2 = assay: In vitro affinity by displacement of a reference radioligand, α2; details: read-out: affinity for α2 receptors

Q: Which Ki (α1) does the source give for `CNS(=O)(=O)Cc1ccc2cccc(CCN(C)C)c2c1` [Example 1, 2-{1-[2-(Dimethylamino)ethyl]naphth-7-yl}-N-methyl-methanesulphonamide] here?
A: < 10 µM

Q: And the Ki (5-HT1 D receptors)?
A: ~0.1 µM

Q: What about the Ki (α2) of the same compound?
A: < 10 µM
